The values below come from patent US20110021367A1 (INDIAN INSTITUTE OF SCIENCE, published 2011).

Amino acid sequences for entries named in this document (tags omitted). Residues count along the entry.
UniProt P9WGX5, residues 1-90: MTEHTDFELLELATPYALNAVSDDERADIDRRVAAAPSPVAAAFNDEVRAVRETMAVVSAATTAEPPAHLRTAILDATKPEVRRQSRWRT

Results are given in words; binding and its absence hold for the method and conditions named. Some entries that bind do so weakly or less than the wild type. For some of these results: Where a sequence is shown, tags or fusion partners need not be part of it.

The target in test [1] is T1, σ^K (M. tuberculosis sigma factor K, Rv0445c) (Mycobacterium tuberculosis) (UniProt P9WGH7).
T1 sequence: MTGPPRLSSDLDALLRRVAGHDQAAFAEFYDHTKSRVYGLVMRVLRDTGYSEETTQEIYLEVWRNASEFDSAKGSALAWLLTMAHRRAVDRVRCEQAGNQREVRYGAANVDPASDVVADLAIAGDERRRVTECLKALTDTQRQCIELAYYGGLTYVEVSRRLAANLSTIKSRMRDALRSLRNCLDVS
Nature of the test: co-expression in E. coli, purified complex on SDS-PAGE.

Test [2] concerns the target T2, RsbW (M. tuberculosis anti-σ^F factor) (Mycobacterium tuberculosis) (UniProt P9WGX7).
T2 sequence: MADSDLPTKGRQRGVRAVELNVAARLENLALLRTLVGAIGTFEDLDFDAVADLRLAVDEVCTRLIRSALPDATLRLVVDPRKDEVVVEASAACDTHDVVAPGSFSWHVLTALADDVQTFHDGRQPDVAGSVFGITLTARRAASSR
Nature of the test: complex from co-expression in E. coli, separated by SDS-PAGE.

For test [3], the target named is T3, σ^F (M. tuberculosis sigma factor F, Rv3286c) (Mycobacterium tuberculosis) (UniProt P9WGI3).
T3 sequence: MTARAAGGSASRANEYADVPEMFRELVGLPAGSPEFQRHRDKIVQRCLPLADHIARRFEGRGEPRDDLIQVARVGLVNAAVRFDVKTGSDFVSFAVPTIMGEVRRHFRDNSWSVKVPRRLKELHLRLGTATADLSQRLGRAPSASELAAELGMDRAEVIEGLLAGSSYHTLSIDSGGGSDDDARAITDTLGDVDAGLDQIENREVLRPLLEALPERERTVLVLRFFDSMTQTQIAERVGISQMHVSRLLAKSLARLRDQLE
Nature of the test: co-expression in E. coli, purified complex on SDS-PAGE.

Test [4] addresses Rv0444c (M. tuberculosis anti-σ^K factor) (Mycobacterium tuberculosis) (UniProt P9WGX5). Nature of the test: complex from co-expression in E. coli, separated by SDS-PAGE.

“Rv0444c (M. tuberculosis anti-σ^K factor) (from UniProt P9WGX5 1-90)”: the binding entry in test [1] is given as “binds”.

B1: σ^F (M. tuberculosis sigma factor F, Rv3286c) (protein)
chain: MTARAAGGSASRANEYADVPEMFRELVGLPAGSPEFQRHRDKIVQRCLPLADHIARRFEGRGEPRDDLIQVARVGLVNAAVRFDVKTGSDFVSFAVPTIMGEVRRHFRDNSWSVKVPRRLKELHLRLGTATADLSQRLGRAPSASELAAELGMDRAEVIEGLLAGSSYHTLSIDSGGGSDDDARAITDTLGDVDAGLDQIENREVLRPLLEALPERERTVLVLRFFDSMTQTQIAERVGISQMHVSRLLAKSLARLRDQLE
In the case of B1, the binding entry in test [2] is given as “binds”.

B2: RsbW (M. tuberculosis anti-σ^F factor) (protein)
chain: MADSDLPTKGRQRGVRAVELNVAARLENLALLRTLVGAIGTFEDLDFDAVADLRLAVDEVCTRLIRSALPDATLRLVVDPRKDEVVVEASAACDTHDVVAPGSFSWHVLTALADDVQTFHDGRQPDVAGSVFGITLTARRAASSR
As for B2, in test [3], the binding entry is reported as “binds”.

B3: σ^K (M. tuberculosis sigma factor K, Rv0445c) (protein)
chain: MTGPPRLSSDLDALLRRVAGHDQAAFAEFYDHTKSRVYGLVMRVLRDTGYSEETTQEIYLEVWRNASEFDSAKGSALAWLLTMAHRRAVDRVRCEQAGNQREVRYGAANVDPASDVVADLAIAGDERRRVTECLKALTDTQRQCIELAYYGGLTYVEVSRRLAANLSTIKSRMRDALRSLRNCLDVS
Turning to B3, in test [4], the binding result was “binds”.
